Measured values taken from PubChem BioAssay AID504648 (National Center for Advancing Translational Sciences (NCATS), 2011).
About 610 (0.16%) of roughly 390,000 compounds were called active. Inconclusive means that the source gave no clear call. Such entries were picked first, then a sample of the others. Calls follow the shape of the dose curve; as a rule, active = well fitted inhibition curve with a large enough effect; inconclusive = small, poorly fitted or top-dose-only effect, or effect the other way, or another doubt; inactive = no such curve, though single readings can be large or run the other way. Potencies beside an inconclusive call are fits to weak or partial responses and may not hold up.

Assay: Nrf2 qHTS screen for inhibitors: counterscreen for cytotoxicity
Conditions: A549 ARE-Fluc cells, CellTiter-Fluor viability, 18-24 h; activity change, negative = cytotoxicity: at 46 µM (top of the series)
Procedure, shortened: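 Cytotoxicity counterscreen: CellTiter-Fluor fluorescence was measured in A549 ARE_Fluc cells after 18-24 h of compound exposure in a concentration series. The subsequent BugLite luminescent read reports ARE-luciferase activity.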
% is scaled to controls: 0 for no effect and ±100 for the full control effect; potency is read from the fitted curve at half-maximal effect.

SMILES	Potency	activity change, negative = cytotoxicity
COC1=CC(=O)c2ccccc2C1=O	inconclusive: 29.1 µM [falling, single point]	
Cc1ccc(Nc2nc(N3CCOCC3)nc(N3CCOCC3)n2)cc1C	inconclusive: 0.366 µM [activator, full curve, poor fit]	
CCOc1ccc(NC2=CC(=O)C(=O)c3ccccc32)cc1	inconclusive: 20.6 µM [falling, partial curve, poor fit]	
O=C(Nc1ccc(F)cc1)NC1(C(=O)NCc2ccc3c(c2)OCO3)CCCCC1		inactive: -20%
CC(C)Cn1cc(NC(=O)N2CCN(c3ccc(F)cc3)CC2)c2ccccc2c1=O		inactive: 0.524%
CCOc1cc(/C=N\Nc2nc(Nc3ccccc3)nc(N3CCOCC3)n2)ccc1OC(=O)c1ccco1	inconclusive: 8.2 µM [activator, partial curve, poor fit]	
COc1ccc2c(CNCc3cccs3)c(C(=O)O)n(Cc3ccc(F)cc3)c2c1	inconclusive: 25.9 µM [falling, single point]	
CCCN1C(=O)c2cc(C(=O)Nc3cccc(C(C)=O)c3)ccc2C1Nc1cccc(C(C)=O)c1 (centres undefined)	inconclusive: 4.11 µM [activator, full curve, poor fit]	
O=S(=O)(NCC(c1ccccc1)N1CCNCC1)c1ccc(Cl)cc1 (centres undefined)		inactive: -2.83%
Cc1ccc(S(=O)(=O)/N=c2\ccc(Cl)cn2C(F)F)cc1		inactive: 11.9%
Cc1cccc(C(=O)Nc2cc3c(cc2C)n(C)c(=O)n3C)c1		inactive: 4.39%
O=C(NNS(=O)(=O)c1ccccc1[N+](=O)[O-])c1cc2ccccc2cc1O		inactive: -0.734%
Cc1cc(N/N=C2/CCCc3ccccc32)nc2ccccc12	inconclusive: 32.6 µM [falling, partial curve, poor fit]	
CC(=O)N1CCC(N(Cc2ccc(C)o2)C(=O)Nc2cccc(C(F)(F)F)c2)CC1		inactive: 8.49%
O=C(CCCCn1c(=O)c2ccccc2n(Cc2cccc(F)c2)c1=O)NCCc1ccccc1		inactive: -0.0939%
C=CCn1c(C)cc(C(=O)CSc2nnc(Cc3ccccc3)o2)c1C	inconclusive: 13 µM [falling, partial curve, poor fit]	
O=C(/C=C/c1ccccc1)c1cc(Br)ccc(=O)c1O	inconclusive: 29.1 µM [falling, single point]	
COCCNc1nnc(SC(C)C(=O)Nc2ccc(-c3nc4ccc(C)cc4s3)cc2)s1 (centres undefined)		inactive: -2.93%
Cc1ccc(CNC(=O)C(Cc2ccccc2)NS(=O)(=O)c2ccc(Br)s2)cc1 (centres undefined)	inconclusive: 25.9 µM [falling, single point]	
COc1ccc(C(=O)C(CCC(CNC(C)(C)C)C(=O)c2ccc(OC)cc2)CNC(C)(C)C)cc1 (centres undefined)	inconclusive: 18.4 µM [falling, single point]	
O=c1c2ccccc2nc(N/N=C/c2c(O)ccc3ccccc23)n1O	inconclusive: 4.11 µM [falling, full curve]	
Cc1cc(C)nc(N2CCCC(C(=O)Nc3ccc4nc(C)c(C)nc4c3)C2)n1 (centres undefined)		inactive: -2.89%
CCC(C)NCCCOc1cc(Cl)ccc1Cl (centres undefined)	inconclusive: 20.6 µM [falling, partial curve, poor fit]	

Another view of some results above:
SMILES,Potency,"activity change, negative = cytotoxicity"
Cc1cc(N/N=C2/CCCc3ccccc32)nc2ccccc12,"inconclusive: 32.6 µM [falling, partial curve, poor fit]",
C=CCn1c(C)cc(C(=O)CSc2nnc(Cc3ccccc3)o2)c1C,"inconclusive: 13 µM [falling, partial curve, poor fit]",
COCCNc1nnc(SC(C)C(=O)Nc2ccc(-c3nc4ccc(C)cc4s3)cc2)s1 (centres undefined),,inactive: -2.93%

The listing continues.

SMILES	Potency	activity change, negative = cytotoxicity
CCn1c(=O)c2cc(C(=O)NCc3cc(OC)ccc3OC)sc2c2ccccc21		inactive: 8.38%
Cc1ccc(C)c(-c2nn(-c3cc(N4CCN(CCO)CC4)ccc3[N+](=O)[O-])c(=O)c3ccccc23)c1	inconclusive: 20.6 µM [falling, single point]	
CCN1CCN(c2csc3ccc(Br)cc3c2=O)CC1	inconclusive: 18.4 µM [falling, partial curve, poor fit]	
Cc1cc(O)cc(C)c1Cl	inconclusive: 29.1 µM [falling, single point]	
CC1CCN(C(=O)c2[nH]cnc2C(=O)NCc2ccc(CNC(=O)OC(C)(C)C)cc2)CC1		inactive: 0.027%
Cc1ccc(-c2nc(CS(=O)CC(=O)NC3CCC(C)CC3)c(C)o2)cc1 (centres undefined)	inconclusive: 3.26 µM [activator, full curve]	
O=C(N/N=C/c1ccc([N+](=O)[O-])o1)C(=O)Nc1ccc(C(=O)O)cc1		inactive: -7.4%
C=CC[C@@H](CC(=O)N(CCO)Cc1ccccc1)C(=O)N[C@H](COC(=O)[C@@H](CC=C)Cc1ccc(F)cc1)C(C)(C)C	inconclusive: 16.4 µM [falling, single point]	
Cc1ccccc1CSCC(=O)Nc1ccccc1-c1ccccc1	inconclusive: 25.9 µM [activator, partial curve, poor fit]	
O=C(Nc1ncc2c(n1)-c1ccccc1CC2)c1ccc(F)cc1		inactive: -4.8%
COc1cc2c(c(OC)c1OC)-c1ccc(NC(=O)c3ccc(F)cc3)c(=O)cc1[C@@H](NC(C)=O)CC2	inconclusive: 13 µM [falling, single point]	
Cc1ccc(-n2nc3c4c(cccc4c2=O)-c2ccccc2-3)cc1	active: 16.4 µM	
COc1ccc(N=Nc2cc(-c3ccccc3)ccc2O)cc1	inconclusive: 32.6 µM [falling, partial curve, poor fit]	
Cc1cccc(C)c1-n1ncc(C(=O)NCCCN2CCC(C)CC2)c1C1CCN(C(=O)OC(C)(C)C)CC1		inactive: 6.52%
O=[N+]([O-])c1cccc(/C=C/c2ccccn2)c1	inconclusive: 29.1 µM [falling, partial curve, poor fit]	
COc1ccccc1N1CCN(C2CCCN(C(=O)CCc3ccccn3)C2)CC1 (centres undefined)		inactive: -2.48%
CCOC(=O)c1sc2ccccc2c1S(=O)(=O)NCc1ccccc1OC		inactive: 0.818%
C[C@H]1CN(CCc2ccccc2)C(=O)[C@@H]1CC(=O)NCc1ccccc1		inactive: -3.92%
COc1cccc(NC(=O)Cc2nnc(SCC(=O)NC(C)c3ccccc3)n2C)c1 (centres undefined)	inconclusive: 18.4 µM [activator, single point]	
CCN1CCN(CCNC(=O)CCc2c(C)c3c(C)nn(-c4ccccc4)c3n(C)c2=O)CC1	inconclusive: 29.1 µM [falling, single point]	
COCCCn1c(SCc2cccc(Cl)c2)nc2c(sc3ccccc32)c1=O	inconclusive: 3.26 µM [activator, partial curve, poor fit]	
CCc1ccccc1NC(=O)NC1CC2CCC(C1)N2Cc1cccs1 (centres undefined)	inconclusive: 20.6 µM [activator, partial curve, poor fit]	
Cc1ccc(S(=O)(=O)N2CCC(C)CC2)cc1[N+](=O)[O-]	inconclusive: 0.461 µM [activator, full curve, poor fit]	

SMILES	Potency	activity change, negative = cytotoxicity
CCOc1ccc(C(=O)Nc2nnc(C(C)C)s2)cc1OCC		inactive: -0.279%
Fc1nc(F)c(F)c(NCCCNc2c(F)c(F)nc(F)c2F)c1F	inconclusive: 14.6 µM [falling, partial curve, poor fit]	
O=C(Nc1nc2c(F)cc(F)cc2s1)c1ccc(S(=O)(=O)N2CCc3ccccc32)cc1	inconclusive: 29.1 µM [falling, single point]	
Cc1ccc(C(=O)NC(=S)/C=C2\N(C)c3ccccc3C2(C)C)cc1	inconclusive: 14.6 µM [falling, partial curve]	
CCN(CC)CCN(CC(=O)N(C1CCCCC1)C1CCCCC1)C(=O)c1ccco1	inconclusive: 25.9 µM [falling, partial curve, poor fit]	
CC(=O)c1c(N2CCCC2)[nH]c(-c2ccccc2)nc1=S		inactive: 11.1% [at 1.84 µM]
O=C(c1ccc(NC2=NC3CS(=O)(=O)CC3S2)cc1)N1CCN(c2ccccc2)CC1 (centres undefined)	inconclusive: 1.84 µM [activator, partial curve, poor fit]	
CCN1C(C(=O)c2ccccc2)=C(OC(=O)COc2ccc(C)cc2)c2ccccc2S1(=O)=O	inconclusive: 23.1 µM [falling, single point]	
N#CC(C#N)=C(Nc1ccc(F)cc1)SCc1cccc(Br)c1	inconclusive: 11.6 µM [falling, partial curve]	
O=C(CN1C(=O)c2ccccc2S1(=O)=O)c1cccc(Br)c1		inactive: -1.3%
COc1ccc(-n2cc(-c3ccccc3)[nH]c2=S)cc1		inactive: 3.91%
CCOC(=O)C1=C(CSc2nc3ccccc3s2)NC(=O)NC1c1ccc(OC)cc1 (centres undefined)	inconclusive: 16.4 µM [falling, single point]	
CCN(CC)S(=O)(=O)c1ccc2c(c1)N(CC(=O)Nc1cccc(C#N)c1)C(=O)CO2		inactive: -7.91%
O=C1SCCN1N=Cc1ccc([N+](=O)[O-])o1	inconclusive: 20.6 µM [falling, partial curve, poor fit]	
CC(NC(=S)NCCc1ccccc1)C(c1cccs1)N1CCN(Cc2ccccc2)CC1 (centres undefined)		inactive: -8.61%
O=[N+]([O-])c1ccc(S(=O)Cc2ccccc2)c([N+](=O)[O-])c1 (centres undefined)	inconclusive: 20.6 µM [falling, partial curve, poor fit]	
COc1ccccc1CN1C(=O)CN(C2CCCC2)C(=O)C1c1ccc(F)cc1 (centres undefined)	inconclusive: 29.1 µM [falling, single point]	
COc1ccc(C2NCCc3c2[nH]c2ccccc32)cc1CSc1nc2ccccc2s1 (centres undefined)		inactive: 20.4%
CC1CCN(C(=O)Cn2c(-c3cccs3)cc3cc(Cl)ccc32)CC1		inactive: -16.8%
CCCCOC(=O)c1c(C)oc2c1cc(NS(=O)(=O)c1cc(OC)ccc1OC)c1ccccc12		inactive: -0.412%
CCOc1cccc2sc(N(CCCN(C)C)C(=O)c3ccc(S(=O)(=O)N(CC)Cc4ccccc4)cc3)nc12	inconclusive: 20.6 µM [falling, single point]	
CC(=NNC(=S)Nc1ccccc1Cl)c1ccccn1	inconclusive: 11.6 µM [falling, partial curve]	
O=C(Nc1ccc(N2CCOCC2)cc1)c1ccc(Cl)c(S(=O)(=O)N2CCCCC2)c1		inactive: -7.32%

2 entries from above, in CSV form.
SMILES,Potency,"activity change, negative = cytotoxicity"
CCCCOC(=O)c1c(C)oc2c1cc(NS(=O)(=O)c1cc(OC)ccc1OC)c1ccccc12,,inactive: -0.412%
CCOc1cccc2sc(N(CCCN(C)C)C(=O)c3ccc(S(=O)(=O)N(CC)Cc4ccccc4)cc3)nc12,"inconclusive: 20.6 µM [falling, single point]",
